The record followed here is publication PMC7819943, “Rice protein-binding microarrays: a tool to detect cis-acting elements near promoter regions in rice”.

The chains behind the UniProt entries cited, without tags or fusion partners.
UniProt Q0JBA9, entry or part of it: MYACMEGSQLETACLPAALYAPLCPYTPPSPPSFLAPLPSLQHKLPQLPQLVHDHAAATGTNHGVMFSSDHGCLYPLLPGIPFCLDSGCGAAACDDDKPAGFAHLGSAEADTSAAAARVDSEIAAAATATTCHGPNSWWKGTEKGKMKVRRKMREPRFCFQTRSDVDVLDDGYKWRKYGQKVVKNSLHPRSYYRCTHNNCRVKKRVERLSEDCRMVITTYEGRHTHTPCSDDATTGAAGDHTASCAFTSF

The other results are listed elsewhere or left out.

The target of the test is OsWRKY34 (Oryza sativa, UniProt Q0JBA9 1-250). The test is described as follows: protein-binding microarray (RPBM); PBS, 2% BSA, 51.3 ng/ul salmon testes DNA, 50 uM zinc acetate, 200 nM TF, 25 C, 1 h; high values mean tight binding. The following applies: protein: recombinant; tags: N-terminal polyhistidine and DsRed monomer fusion (pET32a); label: CyDye5-dUTP incorporated in the synthesized complementary strand; 3' TTTTT single-stranded linker to array surface; dsDNA, one strand shown. In short, it runs like this:
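A custom Agilent array was converted to double-stranded form by primer extension with Cy5-dUTP and blocked with 2% BSA. Protein at 200 nM in PBS with 2% BSA, salmon testes DNA and 50 µM zinc acetate was applied for 1 h at 25 °C, followed by washing. The proteins were polyhistidine–DsRed N-terminal fusions of transcription factors, expressed in E. coli BL21-CodonPlus and Ni–NTA-purified. The binding signal is per-feature fluorescence intensity (arbitrary units) from an Axon 4000B scanner.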
Regarding “CCATTGACTTTTTGTCCAACGTTTGACCATTCGTCTTATTCGGAGTCACCTAGTGCAG”, the binding signal is 17000 fluorescence intensity (a.u.).
Under “ACCACGCATATAAACCGCAGATTATTTTTGTATCGAACGTCGGAGTCACCTAGTGCAG” stands 8060 fluorescence intensity (a.u.); under “GTGGGAGGGTGGCCGGCTCGTTGCAACCTCGAGCTCTCAACGGAGTCACCTAGTGCAG”, 12000 fluorescence intensity (a.u.); under “GCTGTGTGTACATATTACTAGTACTACTTAATACGTGCTTCGGAGTCACCTAGTGCAG”, 11200 fluorescence intensity (a.u.).
“TCACCATCATCTCCGCGGCCTTCAAATCCTCCTTCAACTCCGGAGTCACCTAGTGCAG”: the binding signal was 10100 fluorescence intensity (a.u.).
As for “GCCTCGTTTCCATCTCCGCCGCGCTCGCCGCGTTCACACTCGGAGTCACCTAGTGCAG”, the binding signal was 11400 fluorescence intensity (a.u.).
For “CGGTCTCCAAAAATAATTTTGACCATTATTTTTCATTATACGGAGTCACCTAGTGCAG”, the binding signal is 8030 fluorescence intensity (a.u.).
On to “TCTCTCCCGCCCTTCGAATTGAATGAATCTCTCAATTTCTCGGAGTCACCTAGTGCAG”, for which the binding signal was 8380 fluorescence intensity (a.u.).
Consider “TGTTAGTACTAAGTTTGTAATTTATACTCCCACCGTCTCACGGAGTCACCTAGTGCAG”, for which the binding signal is 8510 fluorescence intensity (a.u.).
The same measure for “TGAACCAAAATTTTTCGATGGCTACAAATTTCTCCAATTCCGGAGTCACCTAGTGCAG”: 8680 fluorescence intensity (a.u.); for “TCTTTTGTAGGATCAATGTTGTTGTATTACTCTCTCATTACGGAGTCACCTAGTGCAG”: 9430 fluorescence intensity (a.u.); for “TTTTGTGCTAGTATTCAGGAACTCATCATTCCTGTGTATACGGAGTCACCTAGTGCAG”: 8060 fluorescence intensity (a.u.).
The same measure for “CAATTCTGAAACCGATCTCCTGTGTCCCCAGTGTCAAATTCGGAGTCACCTAGTGCAG”: 8430 fluorescence intensity (a.u.).
Turning to “TTCTCTGCTCCATTTCTTGCACTCTCCACTTTGCATTCTACGGAGTCACCTAGTGCAG”, the binding signal is 13100 fluorescence intensity (a.u.).
Under “TTTAATACTTCAAATGTATGTCCGTATGCATAATTTTTTTCGGAGTCACCTAGTGCAG” stands 10100 fluorescence intensity (a.u.); under “TCCATATCTATTTCTCTCTTCCCGCACCTACTACTACACTCGGAGTCACCTAGTGCAG”, 9020 fluorescence intensity (a.u.); under “AGTAGCATCCACTTCCACTTCGTCTCTCTCTCTCTCTCCCCGGAGTCACCTAGTGCAG”, 8150 fluorescence intensity (a.u.).
Under “CCTGACTCCTCTCCTGCATTCTCTCGCTTCTGACGGCGGCCGGAGTCACCTAGTGCAG” stands 8100 fluorescence intensity (a.u.); under “TCTGCCTATGATCTGACTCCTGTAAGCACCTCATTTCCTTCGGAGTCACCTAGTGCAG”, 8192 fluorescence intensity (a.u.); under “GATCCGTCCCATGTGGTTCACGTTGACTGCTAATCCAACTCGGAGTCACCTAGTGCAG”, 11300 fluorescence intensity (a.u.).
Under “ACGCCAGCCATGTGTGTGTCTTGTCCGCGTACGTGCGCGCCGGAGTCACCTAGTGCAG” stands 9260 fluorescence intensity (a.u.); under “TCTTCATGGCTGGGTGGGTTGGTGAAGCTAGGTGGGCGCGCGGAGTCACCTAGTGCAG”, 14800 fluorescence intensity (a.u.); under “GTATGATTAATCCGTTCTTCCATATGTAGGTACAATATTACGGAGTCACCTAGTGCAG”, 9500 fluorescence intensity (a.u.).
For “CCGCAACCTCCCGCCCGTCCCCGCCGACACCGACCACCCCCGGAGTCACCTAGTGCAG”, the binding signal was 10100 fluorescence intensity (a.u.).
Under “CTATCTCTTCTTCTCTCTTTTTCAACTTAGCACAAATCATCGGAGTCACCTAGTGCAG” stands 9080 fluorescence intensity (a.u.).
Take “CATCTGCTTCCACCTGAAAATCATGCCAAACACAATACAACGGAGTCACCTAGTGCAG”: the binding signal was 8480 fluorescence intensity (a.u.).
For “GTGGGTTGGGGTCGGCGAGGGATCCGGGCGGCGGGGTATGCGGAGTCACCTAGTGCAG”, the binding signal was 14000 fluorescence intensity (a.u.).
The same measure for “AGGAGTCGCGGCTGAACAGGGGAGGGGCGGCGATCGAGCACGGAGTCACCTAGTGCAG”: 8810 fluorescence intensity (a.u.); for “CCTCTAGAGGCTCTTCCTTCACTCAGCCTCTCCAACGACGCGGAGTCACCTAGTGCAG”: 8540 fluorescence intensity (a.u.).
Take “GCCCGGCCCATATTGGCCCACTAGAACCGTGGCCACTTTCCGGAGTCACCTAGTGCAG”: the binding signal is 8330 fluorescence intensity (a.u.).
The same measure for “AAGTCCTTAGCATGGCAACAACACCGTCCCACCACTCTCACGGAGTCACCTAGTGCAG”: 8220 fluorescence intensity (a.u.).
Under “TGATGAGCCTGCTGTTTCAGCTGTCTGGTACTTGGTTGACCGGAGTCACCTAGTGCAG” stands 8540 fluorescence intensity (a.u.); under “CTTACTGAAATTTTGTCACCCAGTTTTGTTGAAACGATCCCGGAGTCACCTAGTGCAG”, 8120 fluorescence intensity (a.u.).
For “GCGGAGGTGGTGGTGGCCTTGGAGGAGGTGGCGGCGGAGGCGGAGTCACCTAGTGCAG”, the binding signal was 14300 fluorescence intensity (a.u.).
Consider “CGCCATCCGCCGCCCGCTCCTCCGCTCCGTCGCCTTCTCCCGGAGTCACCTAGTGCAG”, for which the binding signal was 8620 fluorescence intensity (a.u.).
In the case of “TCAAAAGTCTACGTTTATATGCATTGTGTATTTGTGTGTTCGGAGTCACCTAGTGCAG”, the binding signal was 8150 fluorescence intensity (a.u.).
The same measure for “CAAAATTCGCGGCCTCCTATATAACGCCGTCTCGATCTCTCGGAGTCACCTAGTGCAG”: 8140 fluorescence intensity (a.u.); for “AACACGATTAATACTTTATGCGTGACTTGTCTTTTTTAATCGGAGTCACCTAGTGCAG”: 8740 fluorescence intensity (a.u.).
The same measure for “CTTTATTTGATGGCCCACATTTGTTTTTCTTGTTTTGCTTCGGAGTCACCTAGTGCAG”: 8740 fluorescence intensity (a.u.).
Under “GTCAAGCTAGCCCTTCTTGCTTGCTCCGTTCAACGCCTCTCGGAGTCACCTAGTGCAG” stands 8930 fluorescence intensity (a.u.); under “GTGCGTGTAAGTTTTGCCCTTTTTGTTTTTTTCTTCTGAGCGGAGTCACCTAGTGCAG”, 8030 fluorescence intensity (a.u.); under “TCCGTGTCAAACCATTAACTTGTTTTTCCTTCCGTGTCAACGGAGTCACCTAGTGCAG”, 10100 fluorescence intensity (a.u.).
